Test results published in the supplement of paper PMC6411743.
± gives the standard deviation of the averaged measurements. Only a part is listed here, and it is no random draw. Small differences around the control level are noise.

Protein sequences, listed by entry. Tags and fused reporters are not part of them. Lines headed by an entry give the natural chain unless they say otherwise; changes in a name come on top.
UniProt Q8TAP6: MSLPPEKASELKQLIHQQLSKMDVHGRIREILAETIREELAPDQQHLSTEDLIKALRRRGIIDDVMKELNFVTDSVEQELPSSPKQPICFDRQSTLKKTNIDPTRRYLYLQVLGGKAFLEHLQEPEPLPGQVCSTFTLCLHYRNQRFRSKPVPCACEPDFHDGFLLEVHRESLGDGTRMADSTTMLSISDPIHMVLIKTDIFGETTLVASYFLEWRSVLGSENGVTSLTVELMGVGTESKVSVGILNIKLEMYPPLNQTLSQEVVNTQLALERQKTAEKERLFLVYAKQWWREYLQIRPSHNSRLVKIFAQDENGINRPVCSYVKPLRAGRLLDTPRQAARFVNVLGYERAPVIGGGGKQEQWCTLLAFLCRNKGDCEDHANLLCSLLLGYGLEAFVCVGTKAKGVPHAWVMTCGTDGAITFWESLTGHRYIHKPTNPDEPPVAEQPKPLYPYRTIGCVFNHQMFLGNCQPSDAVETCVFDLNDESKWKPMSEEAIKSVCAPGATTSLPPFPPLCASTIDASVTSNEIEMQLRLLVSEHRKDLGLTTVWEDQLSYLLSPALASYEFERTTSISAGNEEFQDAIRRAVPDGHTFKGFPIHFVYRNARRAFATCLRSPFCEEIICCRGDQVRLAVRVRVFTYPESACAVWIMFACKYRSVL
UniProt Q8ND82: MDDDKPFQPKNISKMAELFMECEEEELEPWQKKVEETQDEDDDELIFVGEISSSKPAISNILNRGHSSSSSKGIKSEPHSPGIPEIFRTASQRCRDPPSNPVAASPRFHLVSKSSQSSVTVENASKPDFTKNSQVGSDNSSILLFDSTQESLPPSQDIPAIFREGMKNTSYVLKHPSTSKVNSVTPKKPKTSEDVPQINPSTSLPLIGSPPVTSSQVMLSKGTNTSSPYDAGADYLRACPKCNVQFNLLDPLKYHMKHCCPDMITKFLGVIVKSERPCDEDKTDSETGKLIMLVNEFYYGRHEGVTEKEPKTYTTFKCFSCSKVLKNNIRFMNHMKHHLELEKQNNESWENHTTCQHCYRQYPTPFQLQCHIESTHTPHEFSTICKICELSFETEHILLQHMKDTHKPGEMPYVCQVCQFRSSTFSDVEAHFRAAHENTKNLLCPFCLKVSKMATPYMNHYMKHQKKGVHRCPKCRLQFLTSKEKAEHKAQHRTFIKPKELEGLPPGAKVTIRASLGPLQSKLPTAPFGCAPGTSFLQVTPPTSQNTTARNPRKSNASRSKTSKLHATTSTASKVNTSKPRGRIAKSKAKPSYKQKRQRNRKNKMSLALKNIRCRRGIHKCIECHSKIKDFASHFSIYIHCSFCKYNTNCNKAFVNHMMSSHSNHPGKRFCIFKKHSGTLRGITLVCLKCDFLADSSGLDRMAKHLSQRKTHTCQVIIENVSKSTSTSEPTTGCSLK
UniProt Q8NHP6: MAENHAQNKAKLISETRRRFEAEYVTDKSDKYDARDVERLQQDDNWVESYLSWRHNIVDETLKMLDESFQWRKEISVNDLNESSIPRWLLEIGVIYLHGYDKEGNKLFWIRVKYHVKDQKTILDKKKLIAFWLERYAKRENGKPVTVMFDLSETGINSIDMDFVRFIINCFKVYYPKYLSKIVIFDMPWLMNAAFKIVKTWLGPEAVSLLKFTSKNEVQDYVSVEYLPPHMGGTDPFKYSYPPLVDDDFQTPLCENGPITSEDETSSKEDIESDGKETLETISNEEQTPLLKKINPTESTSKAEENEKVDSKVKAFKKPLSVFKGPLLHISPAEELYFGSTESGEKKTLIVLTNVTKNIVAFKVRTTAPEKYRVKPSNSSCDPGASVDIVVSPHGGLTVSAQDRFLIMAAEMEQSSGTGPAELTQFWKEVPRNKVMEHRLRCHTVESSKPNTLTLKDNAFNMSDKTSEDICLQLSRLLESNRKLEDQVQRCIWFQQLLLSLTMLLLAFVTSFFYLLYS
UniProt Q8N5C6: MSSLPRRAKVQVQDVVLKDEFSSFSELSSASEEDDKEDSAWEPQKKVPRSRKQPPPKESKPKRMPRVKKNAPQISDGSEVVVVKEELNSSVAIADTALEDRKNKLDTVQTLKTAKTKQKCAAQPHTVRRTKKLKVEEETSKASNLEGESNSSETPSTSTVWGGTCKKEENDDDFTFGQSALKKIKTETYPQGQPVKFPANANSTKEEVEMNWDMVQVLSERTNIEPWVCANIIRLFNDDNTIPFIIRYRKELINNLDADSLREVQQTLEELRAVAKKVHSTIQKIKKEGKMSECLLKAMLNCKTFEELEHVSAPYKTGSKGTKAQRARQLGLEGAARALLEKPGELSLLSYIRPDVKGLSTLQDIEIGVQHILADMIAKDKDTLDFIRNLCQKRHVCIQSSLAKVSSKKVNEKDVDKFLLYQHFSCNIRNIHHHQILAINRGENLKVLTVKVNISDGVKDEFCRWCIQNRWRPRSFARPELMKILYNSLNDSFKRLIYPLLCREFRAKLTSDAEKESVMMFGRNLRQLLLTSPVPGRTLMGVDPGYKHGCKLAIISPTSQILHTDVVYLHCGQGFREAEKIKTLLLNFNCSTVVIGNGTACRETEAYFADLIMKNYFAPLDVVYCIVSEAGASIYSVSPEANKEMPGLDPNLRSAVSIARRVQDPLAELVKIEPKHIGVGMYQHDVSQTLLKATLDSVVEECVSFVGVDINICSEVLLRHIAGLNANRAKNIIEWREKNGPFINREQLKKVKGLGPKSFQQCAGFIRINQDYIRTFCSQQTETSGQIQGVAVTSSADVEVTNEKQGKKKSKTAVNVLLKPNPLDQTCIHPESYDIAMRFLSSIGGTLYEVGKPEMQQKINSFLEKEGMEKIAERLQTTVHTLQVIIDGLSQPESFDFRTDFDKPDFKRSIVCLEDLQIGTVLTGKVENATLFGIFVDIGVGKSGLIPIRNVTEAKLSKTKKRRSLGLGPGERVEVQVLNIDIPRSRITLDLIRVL
UniProt Q8IVT5: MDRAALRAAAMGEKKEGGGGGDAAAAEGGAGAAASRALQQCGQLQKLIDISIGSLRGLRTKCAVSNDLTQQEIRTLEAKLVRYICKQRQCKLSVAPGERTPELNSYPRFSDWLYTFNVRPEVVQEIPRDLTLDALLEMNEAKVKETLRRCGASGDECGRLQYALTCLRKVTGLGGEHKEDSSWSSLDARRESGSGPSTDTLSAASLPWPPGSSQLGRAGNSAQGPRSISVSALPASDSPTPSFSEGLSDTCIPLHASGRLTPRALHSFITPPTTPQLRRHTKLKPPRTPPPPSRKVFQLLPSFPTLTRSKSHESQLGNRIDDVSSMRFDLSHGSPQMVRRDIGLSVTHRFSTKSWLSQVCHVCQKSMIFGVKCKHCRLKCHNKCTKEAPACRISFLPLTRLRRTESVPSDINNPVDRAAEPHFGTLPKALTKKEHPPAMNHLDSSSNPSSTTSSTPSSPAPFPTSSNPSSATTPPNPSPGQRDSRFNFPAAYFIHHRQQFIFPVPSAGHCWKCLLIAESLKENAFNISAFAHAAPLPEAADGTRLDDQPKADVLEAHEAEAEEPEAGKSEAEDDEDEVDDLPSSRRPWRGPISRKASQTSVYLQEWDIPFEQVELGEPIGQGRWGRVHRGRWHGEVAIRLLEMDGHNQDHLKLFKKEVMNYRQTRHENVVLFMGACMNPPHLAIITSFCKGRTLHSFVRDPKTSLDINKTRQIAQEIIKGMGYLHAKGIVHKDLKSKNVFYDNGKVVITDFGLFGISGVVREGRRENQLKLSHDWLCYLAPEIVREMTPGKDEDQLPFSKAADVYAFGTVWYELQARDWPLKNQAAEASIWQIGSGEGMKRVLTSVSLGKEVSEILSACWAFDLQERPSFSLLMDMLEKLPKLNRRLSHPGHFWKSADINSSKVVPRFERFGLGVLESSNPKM
UniProt Q8IY37: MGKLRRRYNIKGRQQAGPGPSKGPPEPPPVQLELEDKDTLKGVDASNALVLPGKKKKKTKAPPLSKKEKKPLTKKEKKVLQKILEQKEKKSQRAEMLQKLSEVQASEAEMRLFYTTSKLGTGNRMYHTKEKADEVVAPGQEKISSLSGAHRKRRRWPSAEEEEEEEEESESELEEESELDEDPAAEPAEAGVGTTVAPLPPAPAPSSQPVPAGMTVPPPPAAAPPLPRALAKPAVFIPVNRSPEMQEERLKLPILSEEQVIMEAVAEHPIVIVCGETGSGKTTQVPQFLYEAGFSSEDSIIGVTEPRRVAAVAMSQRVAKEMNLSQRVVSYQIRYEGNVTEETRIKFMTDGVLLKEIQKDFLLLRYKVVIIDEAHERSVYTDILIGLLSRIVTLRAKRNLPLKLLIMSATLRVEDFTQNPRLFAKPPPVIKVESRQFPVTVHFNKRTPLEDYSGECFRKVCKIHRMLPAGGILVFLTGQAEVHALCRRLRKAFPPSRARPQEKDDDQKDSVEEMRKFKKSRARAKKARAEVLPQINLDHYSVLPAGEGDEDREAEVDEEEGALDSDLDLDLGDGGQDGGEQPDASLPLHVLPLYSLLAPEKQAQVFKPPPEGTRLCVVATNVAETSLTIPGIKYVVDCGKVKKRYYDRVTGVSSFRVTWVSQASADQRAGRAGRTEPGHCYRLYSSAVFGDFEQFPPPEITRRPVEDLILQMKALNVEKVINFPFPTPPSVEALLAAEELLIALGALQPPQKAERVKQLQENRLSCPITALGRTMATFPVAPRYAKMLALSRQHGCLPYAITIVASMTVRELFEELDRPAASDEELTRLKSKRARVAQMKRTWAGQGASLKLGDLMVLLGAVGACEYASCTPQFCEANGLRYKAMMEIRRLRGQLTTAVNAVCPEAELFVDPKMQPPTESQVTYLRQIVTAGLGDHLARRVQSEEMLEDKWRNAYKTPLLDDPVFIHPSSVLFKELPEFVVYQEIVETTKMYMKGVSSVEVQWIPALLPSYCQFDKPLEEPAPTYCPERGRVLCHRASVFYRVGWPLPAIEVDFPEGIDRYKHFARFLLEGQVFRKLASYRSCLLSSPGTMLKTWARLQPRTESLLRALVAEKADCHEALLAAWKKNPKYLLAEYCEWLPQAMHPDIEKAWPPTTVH
UniProt Q8N9F7: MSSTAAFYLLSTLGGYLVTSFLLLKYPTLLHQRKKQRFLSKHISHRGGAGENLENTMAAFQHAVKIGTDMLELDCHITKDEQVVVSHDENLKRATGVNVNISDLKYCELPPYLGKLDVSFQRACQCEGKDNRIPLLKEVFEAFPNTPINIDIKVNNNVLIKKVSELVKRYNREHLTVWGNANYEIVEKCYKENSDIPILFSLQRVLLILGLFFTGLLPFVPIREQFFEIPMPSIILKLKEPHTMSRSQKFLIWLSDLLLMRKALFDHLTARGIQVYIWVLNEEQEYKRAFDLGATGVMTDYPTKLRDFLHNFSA
UniProt Q8IWD4: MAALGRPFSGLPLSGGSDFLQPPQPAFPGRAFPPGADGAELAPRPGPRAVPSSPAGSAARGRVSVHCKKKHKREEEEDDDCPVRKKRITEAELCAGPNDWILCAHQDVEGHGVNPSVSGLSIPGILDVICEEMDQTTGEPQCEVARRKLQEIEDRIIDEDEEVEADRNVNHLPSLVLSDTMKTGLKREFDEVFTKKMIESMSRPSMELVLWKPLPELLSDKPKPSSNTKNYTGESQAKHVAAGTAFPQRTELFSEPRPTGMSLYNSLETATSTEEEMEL
UniProt Q8NCC3: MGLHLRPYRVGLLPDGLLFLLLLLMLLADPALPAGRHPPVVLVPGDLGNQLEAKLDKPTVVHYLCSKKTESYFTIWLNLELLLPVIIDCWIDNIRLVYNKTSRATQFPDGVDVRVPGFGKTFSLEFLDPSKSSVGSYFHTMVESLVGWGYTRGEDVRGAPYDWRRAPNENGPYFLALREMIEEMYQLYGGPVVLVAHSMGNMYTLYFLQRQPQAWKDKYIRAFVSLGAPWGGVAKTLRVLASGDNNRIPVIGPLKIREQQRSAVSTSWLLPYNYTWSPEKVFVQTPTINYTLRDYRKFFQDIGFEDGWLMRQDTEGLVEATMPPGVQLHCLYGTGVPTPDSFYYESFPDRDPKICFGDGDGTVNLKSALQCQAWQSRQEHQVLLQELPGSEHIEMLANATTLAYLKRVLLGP
UniProt Q8N465: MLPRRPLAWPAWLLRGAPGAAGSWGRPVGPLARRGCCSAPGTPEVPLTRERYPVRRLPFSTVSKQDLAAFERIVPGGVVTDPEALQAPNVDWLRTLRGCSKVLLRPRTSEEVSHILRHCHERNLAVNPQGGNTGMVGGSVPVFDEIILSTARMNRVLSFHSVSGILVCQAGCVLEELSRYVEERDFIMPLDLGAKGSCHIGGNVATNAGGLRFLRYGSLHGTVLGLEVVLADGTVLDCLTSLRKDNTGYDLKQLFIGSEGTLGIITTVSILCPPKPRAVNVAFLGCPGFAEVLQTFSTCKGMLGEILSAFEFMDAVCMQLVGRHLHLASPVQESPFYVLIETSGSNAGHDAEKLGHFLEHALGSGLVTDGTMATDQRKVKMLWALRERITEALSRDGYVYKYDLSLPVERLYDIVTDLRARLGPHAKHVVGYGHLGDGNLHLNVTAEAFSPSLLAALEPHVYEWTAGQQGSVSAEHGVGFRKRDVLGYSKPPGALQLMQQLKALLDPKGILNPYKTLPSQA

Compound: Nc1ncnc2c1ncn2[C@@H]1O[C@H](COP(=O)(O)OP(=O)(O)OP(=O)(O)O)[C@@H](O)[C@H]1O [adenosine triphosphate]
Assay: NP40-soluble protein abundance relative to vehicle (solubility fold change) (ratio); higher = more soluble protein in presence of ATP
Method in brief: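 Jurkat crude lysate prepared with a Dounce homogeniser was treated at eight concentrations spanning 0.1 to 10 mM, 10 min at room temperature then 3 min at 37 °C. Solubilisation with 0.8% NP40 and benzonase and ultracentrifugation preceded TMT labelling of the supernatant for LC-MS/MS. Fold change against the detergent-processed vehicle was determined per replicate from vsn-normalised intensities, across three independent experiments.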

Target	NP40-soluble protein abundance (concentration: 0.1mM)	NP40-soluble protein abundance (concentration: 0.5mM)
RNF214 (UniProt Q8ND24)	0.984 ± 0.016	0.988 ± 0.054
DTWD2 (UniProt Q8NBA8)	1 ± 0.059	1.05 ± 0.091
UniProt Q8N8R7	0.965 ± 0.079	0.968 ± 0.048
MLKL (UniProt Q8NB16)	1.04 ± 0.097	1.01 ± 0.034
PELP1 (UniProt Q8IZL8)	0.993 ± 0.03	0.896 ± 0.049
CMIP (UniProt Q8IY22)	1.01 ± 0.019	1.042 ± 0.0018
UniProt Q8IW35 and related entries	0.996 ± 0.017	0.995 ± 0.025
UniProt Q8NDI1-2|Q8NDI1-3|Q8NDI1	0.981 ± 0.022	0.963 ± 0.046
UniProt Q8IWS0 and related entries	1.04 ± 0.053	1.05 ± 0.021
CEP76 (UniProt Q8TAP6)	1.01 ± 0.03	1.01 ± 0.023
CBR4 (UniProt Q8N4T8)	1 ± 0.051	0.958 ± 0.083
UniProt Q8IX90	0.9731 ± 0.0067	0.9868 ± 0.0088
UniProt Q8N2Z9	0.873 ± 0.12	0.934 ± 0.14
UniProt Q8IXQ5 and related entries	1.01 ± 0.041	1 ± 0.059
RCOR2 (UniProt Q8IZ40)	0.9791 ± 0.0094	0.994 ± 0.041
UniProt Q8NBU5	1.03 ± 0.055	1.06 ± 0.073
UniProt Q8ND04 and related entries	1.01 ± 0.028	1.01 ± 0.066
UniProt Q8N983-4|B1AL05 and related entries	0.937 ± 0.29	0.949 ± 0.32
UniProt Q8N4Q1 and related entries	0.917 ± 0.095	0.906 ± 0.067
FBXO22 (UniProt Q8NEZ5)	1.13 ± 0.095	1.05 ± 0.069
UniProt Q8NBJ4 and related entries	0.873 ± 0.091	0.883 ± 0.061
UniProt Q8N490 and related entries	1.01 ± 0.15	1.04 ± 0.12
RNF169 (UniProt Q8NCN4)	1.36 ± 0.2	1.06 ± 0.057
UniProt Q8IY95 and related entries	1 ± 0.083	1 ± 0.059
UniProt Q8ND82 and related entries	1.03 ± 0.037	1.1 ± 0.036

Target	NP40-soluble protein abundance (concentration: 0.1mM)	NP40-soluble protein abundance (concentration: 0.5mM)
INTS1 (UniProt Q8N201)	0.9777 ± 0.0031	1.05 ± 0.019
THNSL1 (UniProt Q8IYQ7)	1.06 ± 0.065	1.03 ± 0.1
MOSPD2 (UniProt Q8NHP6)	1.06 ± 0.071	1.04 ± 0.07
SRBD1 (UniProt Q8N5C6)	1.08 ± 0.055	1.08 ± 0.034
ANKRD52 (UniProt Q8NB46)	1.04 ± 0.075	1.02 ± 0.06
UniProt Q8IVT5 and related entries	0.928 ± 0.096	0.988 ± 0.065
DHX37 (UniProt Q8IY37)	1.08 ± 0.015	1.16 ± 0.029
UniProt Q8NB37	0.968 ± 0.09	1.01 ± 0.046
LRRC8A (UniProt Q8IWT6)	1 ± 0.054	0.999 ± 0.02
GCC2 (UniProt Q8IWJ2)	0.9954 ± 0.0065	1 ± 0.04
GDPD1 (UniProt Q8N9F7)	1.05 ± 0.15	1.02 ± 0.14
CNPY4 (UniProt Q8N129)	1.03 ± 0.073	0.929 ± 0.14
MICALL1 (UniProt Q8N3F8)	0.966 ± 0.017	0.961 ± 0.038
EXOC8 (UniProt Q8IYI6)	1.02 ± 0.018	1.03 ± 0.036
UniProt Q8IWA5-2	0.947 ± 0.033	0.9232 ± 0.0027
WDR48 (UniProt Q8TAF3)	1.05 ± 0.054	1.04 ± 0.026
UniProt Q8NHY2 and related entries	1.02 ± 0.057	0.977 ± 0.14
CCDC117 (UniProt Q8IWD4)	0.96 ± 0.024	0.943 ± 0.021
RBM15B (UniProt Q8NDT2)	1.06 ± 0.022	1.16 ± 0.07
TMEM102 (UniProt Q8N9M5)	0.959 ± 0.025	0.964 ± 0.036
TTC39C (UniProt Q8N584)	1.04 ± 0.02	1.05 ± 0.029
UniProt Q8N128 and related entries	0.92 ± 0.043	0.946 ± 0.04
ZBTB8OS (UniProt Q8IWT0)	1.13 ± 0.19	1.16 ± 0.27
CLYBL (UniProt Q8N0X4)	1.01 ± 0.052	1.05 ± 0.066
RDH13 (UniProt Q8NBN7)	0.956 ± 0.053	0.998 ± 0.03

Target	NP40-soluble protein abundance (concentration: 0.1mM)	NP40-soluble protein abundance (concentration: 0.5mM)
LNX2 (UniProt Q8N448)	0.906 ± 0.13	0.986 ± 0.012
UniProt Q8NA72 and related entries	0.986 ± 0.2	1.01 ± 0.082
UniProt Q8N9N5 and related entries	1.01 ± 0.052	1.01 ± 0.067
UniProt Q8N371	1.08 ± 0.064	1.05 ± 0.031
UniProt Q8TAC1 and related entries	1.05 ± 0.096	1.08 ± 0.025
PCYOX1L (UniProt Q8NBM8)	0.966 ± 0.056	0.969 ± 0.025
LIX1L (UniProt Q8IVB5)	0.973 ± 0.023	0.944 ± 0.059
UniProt Q8NE86 and related entries	1.11 ± 0.082	1.05 ± 0.057
UniProt Q8NC51 and related entries	0.93 ± 0.062	0.972 ± 0.042
UniProt Q8N1K5 and related entries	1.06 ± 0.1	1.05 ± 0.098
UniProt Q8IXQ6-2|Q8IXQ6-3	1.07 ± 0.039	1.08 ± 0.017
TTC13 (UniProt Q8NBP0)	1.17 ± 0.12	1.12 ± 0.087
ARFGAP1 (UniProt Q8N6T3)	0.98 ± 0.021	0.9992 ± 0.0059
UniProt Q8NHM5 and related entries	1.02 ± 0.059	1.05 ± 0.037
TRIM22 (UniProt Q8IYM9)	1.01 ± 0.043	1 ± 0.037
UniProt Q8NFC6	0.987 ± 0.021	0.995 ± 0.06
SRFBP1 (UniProt Q8NEF9)	0.971 ± 0.031	0.973 ± 0.044
UniProt Q8IYH5 and related entries	0.966 ± 0.14	1 ± 0.15
UniProt Q8IZC7 and related entries	0.934 ± 0.14	0.898 ± 0.29
UniProt Q8IWV8 and related entries	1.08 ± 0.059	1.04 ± 0.086
UniProt Q8N5N7 and related entries	1.01 ± 0.32	0.977 ± 0.26
RFLNB (UniProt Q8N5W9)	0.953 ± 0.051	0.942 ± 0.052
UniProt Q8TAT6 and related entries	1.03 ± 0.058	1.04 ± 0.047
PDPR (UniProt Q8NCN5)	1.08 ± 0.096	1.05 ± 0.046
TXNDC5 (UniProt Q8NBS9)	0.984 ± 0.047	1 ± 0.037

Retrieved one by one from above, 5 records:
Target	NP40-soluble protein abundance (concentration: 0.1mM)	NP40-soluble protein abundance (concentration: 0.5mM)
UniProt Q8NC51 and related entries	0.93 ± 0.062	0.972 ± 0.042
UniProt Q8TAC1 and related entries	1.05 ± 0.096	1.08 ± 0.025
SRFBP1 (UniProt Q8NEF9)	0.971 ± 0.031	0.973 ± 0.044
UniProt Q8IXQ6-2|Q8IXQ6-3	1.07 ± 0.039	1.08 ± 0.017
UniProt Q8TAT6 and related entries	1.03 ± 0.058	1.04 ± 0.047

The results go on.

Target	NP40-soluble protein abundance (concentration: 0.1mM)	NP40-soluble protein abundance (concentration: 0.5mM)
UniProt Q8N3U4 and related entries	1.07 ± 0.075	1.05 ± 0.047
LMTK2 (UniProt Q8IWU2)	0.983 ± 0.1	0.943 ± 0.1
PLA2G15 (UniProt Q8NCC3)	0.971 ± 0.038	0.896 ± 0.059
NUP93 (UniProt Q8N1F7)	1.02 ± 0.057	1.03 ± 0.038
GALNT12 (UniProt Q8IXK2)	1.1 ± 0.051	1.08 ± 0.079
UniProt Q8N8J7	0.968 ± 0.063	0.854 ± 0.16
PM20D2 (UniProt Q8IYS1)	1.05 ± 0.027	1.02 ± 0.05
FTSJ3 (UniProt Q8IY81)	0.99 ± 0.041	1.01 ± 0.048
UniProt Q8NHU6 and related entries	1.05 ± 0.045	1.03 ± 0.063
UniProt Q8NEB9	1.03 ± 0.077	1.05 ± 0.051
RBM12B (UniProt Q8IXT5)	0.994 ± 0.063	1.01 ± 0.031
LRRC57 (UniProt Q8N9N7)	1.02 ± 0.033	1.03 ± 0.039
D2HGDH (UniProt Q8N465)	1.01 ± 0.054	0.926 ± 0.024
UniProt Q8TAP9	0.976 ± 0.064	0.894 ± 0.12
ASCC3 (UniProt Q8N3C0)	1.02 ± 0.031	0.973 ± 0.042
GPD1L (UniProt Q8N335)	0.985 ± 0.021	0.998 ± 0.025
PAF1 (UniProt Q8N7H5)	1.01 ± 0.037	1.05 ± 0.047
UniProt Q8NBZ7 and related entries	1.01 ± 0.035	0.991 ± 0.07
ANKRD44 (UniProt Q8N8A2)	0.984 ± 0.063	0.985 ± 0.058
RHOT2 (UniProt Q8IXI1)	1.06 ± 0.067	1.1 ± 0.1
ZNRF2 (UniProt Q8NHG8)	0.906 ± 0.082	0.88 ± 0.099
EHBP1L1 (UniProt Q8N3D4)	1 ± 0.066	0.965 ± 0.038
LRRC47 (UniProt Q8N1G4)	1.04 ± 0.052	1.03 ± 0.071

No new results follow: entries from further up.
Target	NP40-soluble protein abundance (concentration: 0.1mM)	NP40-soluble protein abundance (concentration: 0.5mM)
LMTK2 (UniProt Q8IWU2)	0.983 ± 0.1	0.943 ± 0.1
PLA2G15 (UniProt Q8NCC3)	0.971 ± 0.038	0.896 ± 0.059
